Data published in doi:10.1101/2023.09.12.557434.
These are yes or no findings as the source states them, for the method shown. Some binding calls cover weakened binding; strength is not graded here. Tags and fused reporters may be left off the sequences shown.

Sequences of proteins named here, by UniProt entry; tags and fusion partners are left off. A change or cut given only in a name is not applied to a line headed by its entry. Residues count along the entry.
UniProt P93002: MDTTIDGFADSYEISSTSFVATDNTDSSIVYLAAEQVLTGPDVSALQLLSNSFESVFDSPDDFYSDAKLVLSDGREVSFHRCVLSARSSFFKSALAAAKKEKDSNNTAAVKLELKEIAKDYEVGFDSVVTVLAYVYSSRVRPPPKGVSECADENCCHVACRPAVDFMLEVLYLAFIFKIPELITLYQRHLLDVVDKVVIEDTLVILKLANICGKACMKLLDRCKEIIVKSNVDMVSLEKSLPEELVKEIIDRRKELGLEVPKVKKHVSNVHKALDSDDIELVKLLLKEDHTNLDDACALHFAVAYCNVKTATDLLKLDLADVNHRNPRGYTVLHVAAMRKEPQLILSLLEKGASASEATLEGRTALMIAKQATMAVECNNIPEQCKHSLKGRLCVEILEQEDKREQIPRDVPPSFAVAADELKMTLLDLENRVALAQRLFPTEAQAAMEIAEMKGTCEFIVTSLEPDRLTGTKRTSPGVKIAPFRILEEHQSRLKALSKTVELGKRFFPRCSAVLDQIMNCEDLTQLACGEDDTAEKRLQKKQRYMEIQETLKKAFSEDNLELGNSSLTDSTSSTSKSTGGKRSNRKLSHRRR
BD-NPR1^1-194: residues 1-194 of P93002
BD-NPR1^178-593: residues 178-593 of P93002

What was measured:
Assay in all cases: two-hybrid
[1] = biological target: T1, BD-TGA3 (full length, in pGBKT7) (Arabidopsis) (UniProt Q39234)
T1 sequence: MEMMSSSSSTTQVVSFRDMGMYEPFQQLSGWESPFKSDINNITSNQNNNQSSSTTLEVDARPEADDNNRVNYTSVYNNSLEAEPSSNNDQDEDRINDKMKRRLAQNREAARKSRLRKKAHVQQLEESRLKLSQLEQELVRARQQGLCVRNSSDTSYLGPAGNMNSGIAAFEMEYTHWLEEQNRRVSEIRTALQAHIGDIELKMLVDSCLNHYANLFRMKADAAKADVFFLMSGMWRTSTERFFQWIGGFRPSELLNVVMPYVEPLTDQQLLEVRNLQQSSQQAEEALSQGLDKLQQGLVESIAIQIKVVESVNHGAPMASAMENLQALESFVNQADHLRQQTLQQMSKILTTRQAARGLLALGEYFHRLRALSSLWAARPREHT

[2] = biological target: T2, BD-TGA6 (full length, in pGBKT7) (Arabidopsis) (UniProt Q39140)
T2 sequence: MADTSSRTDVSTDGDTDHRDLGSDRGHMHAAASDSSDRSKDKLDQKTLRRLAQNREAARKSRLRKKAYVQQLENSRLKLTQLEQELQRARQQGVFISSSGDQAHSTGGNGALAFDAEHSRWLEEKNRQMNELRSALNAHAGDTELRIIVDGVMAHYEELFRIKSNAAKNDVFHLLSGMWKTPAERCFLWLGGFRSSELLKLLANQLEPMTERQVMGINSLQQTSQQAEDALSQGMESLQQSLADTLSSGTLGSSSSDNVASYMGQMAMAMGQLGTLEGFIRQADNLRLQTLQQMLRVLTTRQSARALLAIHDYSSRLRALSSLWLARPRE

[3] = biological target: T3, BD-TGA2 (full length, in pGBKT7) (Arabidopsis) (UniProt P43273)
T3 sequence: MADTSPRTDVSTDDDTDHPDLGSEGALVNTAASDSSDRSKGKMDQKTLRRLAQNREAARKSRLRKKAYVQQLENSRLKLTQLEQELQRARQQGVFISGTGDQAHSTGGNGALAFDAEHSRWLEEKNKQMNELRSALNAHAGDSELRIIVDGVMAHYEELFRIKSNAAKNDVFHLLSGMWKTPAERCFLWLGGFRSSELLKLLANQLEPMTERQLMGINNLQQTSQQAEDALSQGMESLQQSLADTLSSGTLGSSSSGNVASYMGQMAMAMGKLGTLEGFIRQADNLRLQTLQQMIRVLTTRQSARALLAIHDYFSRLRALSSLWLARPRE

[4] = biological target: T4, BD-TGA1 (full length, in pGBKT7) (Arabidopsis) (UniProt Q39237)
T4 sequence: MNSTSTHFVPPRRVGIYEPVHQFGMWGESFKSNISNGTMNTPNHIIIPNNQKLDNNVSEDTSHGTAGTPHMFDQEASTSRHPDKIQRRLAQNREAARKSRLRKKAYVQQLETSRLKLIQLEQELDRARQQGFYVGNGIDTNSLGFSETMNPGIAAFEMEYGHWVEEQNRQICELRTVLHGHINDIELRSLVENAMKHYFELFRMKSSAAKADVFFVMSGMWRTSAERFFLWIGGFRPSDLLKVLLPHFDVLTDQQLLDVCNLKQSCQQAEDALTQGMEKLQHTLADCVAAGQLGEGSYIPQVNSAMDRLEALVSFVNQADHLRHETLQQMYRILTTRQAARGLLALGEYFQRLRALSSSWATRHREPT

[5] = biological target: BD-NPR1 (Non-expresser of PR genes 1, full length, in pGBKT7) (Arabidopsis) (UniProt P93002)
[6] = biological target: T5, BD-TGA5 (full length, in pGBKT7) (Arabidopsis) (UniProt Q39163)
T5 sequence: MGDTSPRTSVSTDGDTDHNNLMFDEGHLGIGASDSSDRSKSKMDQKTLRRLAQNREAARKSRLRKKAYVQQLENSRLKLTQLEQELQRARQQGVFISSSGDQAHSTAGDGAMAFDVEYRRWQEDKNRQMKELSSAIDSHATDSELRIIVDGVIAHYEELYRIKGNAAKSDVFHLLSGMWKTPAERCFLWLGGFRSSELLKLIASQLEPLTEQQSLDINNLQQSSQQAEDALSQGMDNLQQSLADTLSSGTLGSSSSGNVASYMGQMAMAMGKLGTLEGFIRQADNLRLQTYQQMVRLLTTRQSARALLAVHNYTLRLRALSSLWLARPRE

[7] = biological target: BD-NPR1^178-593 (Arabidopsis) (UniProt P93002)
[8] = biological target: T6, BD-TGA4 (full length, in pGBKT7) (Arabidopsis) (UniProt Q39162)
T6 sequence: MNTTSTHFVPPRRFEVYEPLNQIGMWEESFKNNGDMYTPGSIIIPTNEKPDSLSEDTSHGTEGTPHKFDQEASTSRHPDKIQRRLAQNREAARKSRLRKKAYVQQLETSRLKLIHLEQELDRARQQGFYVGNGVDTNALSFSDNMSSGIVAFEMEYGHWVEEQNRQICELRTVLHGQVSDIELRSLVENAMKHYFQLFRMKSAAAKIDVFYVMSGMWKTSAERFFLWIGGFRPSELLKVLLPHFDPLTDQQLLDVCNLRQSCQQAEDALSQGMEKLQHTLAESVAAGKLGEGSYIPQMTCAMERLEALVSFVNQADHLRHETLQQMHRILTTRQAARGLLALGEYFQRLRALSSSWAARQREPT

[9] = biological target: BD-NPR1^1-194 (Arabidopsis) (UniProt P93002)
[10] = biological target: T7, BD-TGA7 (full length, in pGBKT7) (Arabidopsis) (UniProt Q93ZE2)
T7 sequence: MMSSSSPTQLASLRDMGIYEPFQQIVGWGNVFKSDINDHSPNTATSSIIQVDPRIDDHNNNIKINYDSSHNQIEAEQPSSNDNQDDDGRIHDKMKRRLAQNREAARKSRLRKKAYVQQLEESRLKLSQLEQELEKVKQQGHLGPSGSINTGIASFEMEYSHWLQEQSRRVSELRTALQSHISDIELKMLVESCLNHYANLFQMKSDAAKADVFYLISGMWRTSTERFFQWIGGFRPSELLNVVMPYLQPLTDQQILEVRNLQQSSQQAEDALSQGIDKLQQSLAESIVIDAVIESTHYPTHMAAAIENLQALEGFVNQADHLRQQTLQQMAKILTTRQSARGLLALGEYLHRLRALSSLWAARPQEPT

B1: AD-ICE1 (Inducer of CBF expression 1, full length, in pGADT7) (protein, UniProt Q9LSE2 1-494)
chain: MGLDGNNGGGVWLNGGGGEREENEEGSWGRNQEDGSSQFKPMLEGDWFSSNQPHPQDLQMLQNQPDFRYFGGFPFNPNDNLLLQHSIDSSSSCSPSQAFSLDPSQQNQFLSTNNNKGCLLNVPSSANPFDNAFEFGSESGFLNQIHAPISMGFGSLTQLGNRDLSSVPDFLSARSLLAPESNNNNTMLCGGFTAPLELEGFGSPANGGFVGNRAKVLKPLEVLASSGAQPTLFQKRAAMRQSSGSKMGNSESSGMRRFSDDGDMDETGIEVSGLNYESDEINESGKAAESVQIGGGGKGKKKGMPAKNLMAERRRRKKLNDRLYMLRSVVPKISKMDRASILGDAIDYLKELLQRINDLHNELESTPPGSLPPTSSSFHPLTPTPQTLSCRVKEELCPSSLPSPKGQQARVEVRLREGRAVNIHMFCGRRPGLLLATMKALDNLGLDVQQAVISCFNGFALDVFRAEQCQEGQEILPDQIKAVLFDTAGYAGMI
[1]
  binding: binds
[2]
  binding: binds
[3]
  binding: binds
[4]
  binding: binds
[5]
  binding: binds
[6]
  binding: binds
[7]
  binding: no binding
[8]
  binding: binds
[9]
  binding: binds
[10]
  binding: binds
